Results as given in ChEMBL document CHEMBL5154701, “Thieno[2,3-d]pyrimidine-2,4(1H,3H)-dione Derivative Inhibits d-Dopachrome Tautomerase Activity and Suppresses the Proliferation of Non-Small Cell Lung Cancer Cells” (J Med Chem, 2022).

Columns and labels:
Settings in all cases: Homo sapiens
[1] = target: 4-chlorophenylpyruvate; experiment: (§1) Substrate activity at MIF (unknown origin) assessed as rate constant Km
[2] = target: 4-hydroxylphenylpyruvate; experiment: as §1
[3] = target: 4-methoxyphenylpyruvate; experiment: as §1
[4] = target: phenylpyruvate; experiment: as §1
[5] = target: 4-methoxyphenylpyruvate; experiment: (§2) Substrate activity at MIF (unknown origin) assessed as rate constant Kcat
[6] = target: phenylpyruvate; experiment: as §2
[7] = target: 4-chlorophenylpyruvate; experiment: (§3) Substrate activity at MIF (unknown origin) assessed as ratio of Kcat to Km
[8] = target: 4-hydroxylphenylpyruvate; experiment: as §3
[9] = target: 4-methoxyphenylpyruvate; experiment: as §3
[10] = target: phenylpyruvate; experiment: as §3

B1: Macrophage migration inhibitory factor (Homo sapiens), P14174 (protein)
chain: MPMFIVNTNVPRASVPDGFLSELTQQLAQATGKPPQYIAVHVVPDQLMAFGGSSEPCALCSLHSIGKIGGAQNRSYSKLLCGLLAERLRISPDRVYINYYDMNAANVGWNNSTFA
B1 showed a Km [1] of 600 µM, a Km [2] of 940 µM and a Km [3] of 1300 µM. It also gave a Km [4] of 760 µM, a kcat [5] of 13 s⁻¹ and a kcat [6] of 14 s⁻¹. The kcat/Km [7] was 4.3 10^4/M/s, the kcat/Km [8] was 2.6 10^4/M/s and the kcat/Km [9] was 0.98 10^4/M/s. The kcat/Km [10] was 1.9 10^4/M/s.
